{
  "source": "PubChem BioAssay AID587",
  "about": "(National Center for Advancing Translational Sciences (NCATS), 2007)",
  "note": "In all, about 59,000 compounds went through this assay and about 35 (0.06%) were called active. The shares of active, inactive and inconclusive entries below differ from those in the screen. Cut-off read from the data, not from the text of the source: active = max dye-equivalent concentration above about 10 nM; inconclusive = between about 1.1 nM and that limit; inactive = weaker than that.",
  "data": [
    {"experiment": "qHTS Assay for Spectroscopic Profiling in Texas Red Spectral Region", "settings": "Compound fluorescence, Texas Red channel, 547/618 nm; hits give high values", "how_it_was_run": "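Texas Red-region profiling: compounds in 100 mM Tris pH 8.0 were read at 547/618 nm after 15 min at room temperature. Intensities were normalized against a six-point Texas Red standard series to give dye-equivalent concentration.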", "values": [
      {"compound": "O=C(CN(Cc1ccco1)C(=O)Cn1nnc(-c2cccs2)n1)NCc1ccccc1", "max dye-equivalent concentration": "inconclusive: 1.1 nM"},
      {"compound": "COC(=O)CSC1=C(C#N)C(c2sccc2C)CC(=O)N1", "note": "(stereo not drawn)", "max dye-equivalent concentration": "inconclusive: 1.1 nM"},
      {"compound": "COCCn1nnnc1C(c1ccccn1)N1CCN(c2cc(C)ccc2C)CC1", "note": "(stereo not drawn)", "max dye-equivalent concentration": "inconclusive: 2.6 nM"},
      {"compound": "O=c1c2[nH]c3ccccc3c2ncn1CCC1=CCCCC1", "max dye-equivalent concentration": "inconclusive: 2 nM"},
      {"compound": "Nc1nc2c(ncn2COCCO)c(=O)[nH]1", "max dye-equivalent concentration": "inconclusive: 1.1 nM"},
      {"compound": "COc1ccc(-c2cc(CCCC(=O)NCCc3cc(OC)ccc3OC)no2)cc1", "max dye-equivalent concentration": "inconclusive: 1.5 nM"},
      {"compound": "Cc1[nH]c2ccccc2c1C1(O)C(=O)N(Cc2ccc3c(c2)OCO3)c2ccccc21", "note": "(stereo not drawn)", "max dye-equivalent concentration": "inconclusive: 1.1 nM"},
      {"compound": "N#CCCCn1c(-c2ccccc2)noc1=O", "max dye-equivalent concentration": "inconclusive: 1.4 nM"},
      {"compound": "O=C(OCC(=O)N1CCCCC1)c1c[nH]c(=O)[nH]c1=O", "max dye-equivalent concentration": "inconclusive: 1.4 nM"},
      {"compound": "CCOc1cc(N2CCOCC2)c(OCC)cc1NC(=O)c1nc2nc(C)cc(C)n2n1", "max dye-equivalent concentration": "inconclusive: 1.2 nM"},
      {"compound": "Brc1ccc(NCc2nnc3n2CCCCC3)cc1", "max dye-equivalent concentration": "inconclusive: 1.4 nM"},
      {"compound": "c1ccc(CCc2ccccc2-c2nc(-c3ccccn3)no2)cc1", "max dye-equivalent concentration": "inconclusive: 1.8 nM"},
      {"compound": "COc1ccc(-c2cc(C(=O)N3CCN(C(c4ccccc4)c4ccccc4)CC3)no2)cc1OC", "max dye-equivalent concentration": "inconclusive: 1.6 nM"},
      {"compound": "O=C1CC(c2cccs2)Sc2nc3ccccc3n21", "note": "(stereo not drawn)", "max dye-equivalent concentration": "inconclusive: 2.6 nM"},
      {"compound": "CCOC(=O)N1CC=C2C(C#N)=C(N)C(C#N)(C#N)[C@H](c3ccc(OC(C)C)c(OCC)c3)[C@H]2C1", "max dye-equivalent concentration": "inactive"},
      {"compound": "COCCn1c(C)cc(C(=O)COC(=O)CCc2ccc(S(=O)(=O)N3CCOCC3)cc2)c1C", "max dye-equivalent concentration": "inconclusive: 1.5 nM"},
      {"compound": "COc1ccc2[nH]c(=O)c(CN(C)C(=O)C3CCCCC3)cc2c1", "max dye-equivalent concentration": "inconclusive: 1.6 nM"},
      {"compound": "CC(C)C(=O)Nc1cc2c(cc1C(=O)c1ccccc1)OCCO2", "max dye-equivalent concentration": "inconclusive: 1.5 nM"},
      {"compound": "Cc1oc(-c2cccs2)[n+]([O-])c1C", "max dye-equivalent concentration": "inconclusive: 1.3 nM"},
      {"compound": "CN(C)c1nc(C(=O)Nc2ccccc2)nc(N(C)C)n1", "max dye-equivalent concentration": "inconclusive: 2.5 nM"},
      {"compound": "O=C(NCC1CCCO1)C1CCCCN1S(=O)(=O)c1ccc(F)cc1", "note": "(stereo not drawn)", "max dye-equivalent concentration": "inconclusive: 1.1 nM"},
      {"compound": "Cc1nc2c(C(=O)N3CCCCC3)cnn2c(C)c1Cc1ccccc1F", "max dye-equivalent concentration": "inconclusive: 1.7 nM"},
      {"compound": "CC(NC(N)=O)C12CC3CC(CC(C3)C1)C2", "note": "(stereo not drawn)", "max dye-equivalent concentration": "inconclusive: 1.9 nM"},
      {"compound": "CC(C)(SCc1ccccc1)[C@H](N)C(=O)O", "max dye-equivalent concentration": "inactive"},
      {"compound": "CCOC(=O)CCC(=O)N1CCOCCN(C(=O)CCC(=O)OCC)CCOCC1", "max dye-equivalent concentration": "inconclusive: 1.1 nM"},
      {"compound": "CC1CCN(C(=O)Cn2c(=O)n(Cc3ccc4c(c3)OCO4)c(=O)c3ccccc32)CC1", "max dye-equivalent concentration": "inconclusive: 1.9 nM"},
      {"compound": "O=C(O)CCNc1ncnc2nc[nH]c12", "max dye-equivalent concentration": "inactive"},
      {"compound": "Cn1c(=S)[nH]c2cccnc21", "max dye-equivalent concentration": "inconclusive: 1.3 nM"},
      {"compound": "O=C(CN1C(=O)NC2(CCCC2)C1=O)Nc1cccc(-c2nnc3n2CCCCC3)c1", "max dye-equivalent concentration": "inconclusive: 1.6 nM"},
      {"compound": "CCOC(=O)CSc1nc2sc3c(c2c(=O)[nH]1)CC(C)(C)OC3", "max dye-equivalent concentration": "inactive"},
      {"compound": "O=C(CCc1ccc(CCC(=O)c2cccs2)s1)c1cccs1", "max dye-equivalent concentration": "inconclusive: 1.4 nM"},
      {"compound": "COc1ccc(C(=O)c2ccccc2)c(O)c1", "max dye-equivalent concentration": "inconclusive: 1.5 nM"},
      {"compound": "O=C1CC(N2CCOCC2)C(=O)N1Cc1ccc(N2CCCC2=O)cc1", "note": "(stereo not drawn)", "max dye-equivalent concentration": "inconclusive: 1.6 nM"},
      {"compound": "CCOC(=O)CS(=O)(=O)c1ccc2ccccc2c1", "max dye-equivalent concentration": "inconclusive: 1.2 nM"},
      {"compound": "Cc1cc2nc(SCC(=O)O)nc(C)c2cc1C", "max dye-equivalent concentration": "inconclusive: 1.4 nM"},
      {"compound": "COc1cc(C(=O)Nc2ccccc2N2CCN(S(C)(=O)=O)CC2)cc(OC)c1OC", "max dye-equivalent concentration": "inconclusive: 1.3 nM"},
      {"compound": "CCOc1ccccc1CNC(=O)CCN1C(=O)COc2ccccc21", "max dye-equivalent concentration": "inconclusive: 1.5 nM"},
      {"compound": "COC(=O)CSc1nnc(CNC(=O)c2cccc(C)c2)n1-c1ccccc1OC", "max dye-equivalent concentration": "inconclusive: 2.2 nM"},
      {"compound": "Cc1ccc(S(=O)(=O)Nc2ccccc2CNc2c(C)n(C)n(-c3ccccc3)c2=O)cc1", "max dye-equivalent concentration": "inconclusive: 2.2 nM"},
      {"compound": "CCOc1cccc2cc(-c3nnc(-c4ccccc4)o3)c(=O)oc12", "max dye-equivalent concentration": "inconclusive: 1.2 nM"},
      {"compound": "COc1ccc(NC(=O)C(C)Oc2ccc(/C(C)=N\\O)cc2)cc1", "note": "(stereo not drawn)", "max dye-equivalent concentration": "inconclusive: 2.7 nM"},
      {"compound": "CCC12CN3CC(CC)(CN(C1)C31C(=O)N(C)c3ccc(C)cc31)C2=O", "note": "(stereo not drawn)", "max dye-equivalent concentration": "inconclusive: 1.5 nM"},
      {"compound": "Clc1ccc(NCc2nnc3n2CCCCC3)cc1", "max dye-equivalent concentration": "inconclusive: 1.3 nM"}
    ]}
  ]
}
